No constants are given. Whether binding was seen depends on the method and setting. In cells and extracts the contact can be indirect. A result given as binding can be weak or reduced; the word gives no strength.
How the values were obtained:
Assay in all cases: split reporter; firefly luciferase complementation imaging; N-Luc and C-Luc fusions co-expressed in Nicotiana benthamiana leaves
[1] = target: T1, OsPIP1;1, plasma membrane intrinsic protein (aquaporin) (rice) (UniProt Q6EU94)
T1 sequence: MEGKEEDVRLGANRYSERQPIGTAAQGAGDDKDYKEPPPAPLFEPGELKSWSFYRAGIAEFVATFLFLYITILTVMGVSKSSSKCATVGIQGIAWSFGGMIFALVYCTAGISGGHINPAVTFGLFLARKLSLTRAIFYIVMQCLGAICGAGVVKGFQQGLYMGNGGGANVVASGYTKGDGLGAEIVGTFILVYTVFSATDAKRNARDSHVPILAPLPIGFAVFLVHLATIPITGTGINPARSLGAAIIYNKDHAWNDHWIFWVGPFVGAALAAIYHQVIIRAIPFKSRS

[2] = target: T2, OsPIP1;3, plasma membrane intrinsic protein (aquaporin) (rice) (UniProt Q9SXF8)
T2 sequence: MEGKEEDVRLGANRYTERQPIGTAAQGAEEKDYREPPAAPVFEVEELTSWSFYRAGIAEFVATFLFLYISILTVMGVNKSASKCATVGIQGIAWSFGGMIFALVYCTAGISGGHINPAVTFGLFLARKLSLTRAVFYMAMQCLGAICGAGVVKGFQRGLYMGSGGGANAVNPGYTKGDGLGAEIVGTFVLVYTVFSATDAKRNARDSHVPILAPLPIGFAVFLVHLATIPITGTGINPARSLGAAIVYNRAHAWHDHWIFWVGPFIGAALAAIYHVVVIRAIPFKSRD

[3] = target: T3, OsPIP2;3, plasma membrane intrinsic protein (aquaporin) (rice) (UniProt Q7XUA6)
T3 sequence: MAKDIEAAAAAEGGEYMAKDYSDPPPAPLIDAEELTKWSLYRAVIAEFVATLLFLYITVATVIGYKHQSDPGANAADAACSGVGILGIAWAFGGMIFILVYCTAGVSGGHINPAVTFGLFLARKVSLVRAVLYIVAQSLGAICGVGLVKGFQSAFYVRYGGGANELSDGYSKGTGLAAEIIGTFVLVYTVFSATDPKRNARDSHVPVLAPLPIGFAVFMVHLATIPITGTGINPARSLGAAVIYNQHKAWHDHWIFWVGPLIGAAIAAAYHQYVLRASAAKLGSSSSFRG

Measured: binding

Leaf Panicle 2 (LP2), leucine-rich repeat receptor-like kinase (rice (Oryza sativa))
binds: all assays above

From PMC4265162
